This note sets out measurements from paper PMC8113518, “JRAB/MICAL-L2 undergoes liquid–liquid phase separation to form tubular recycling endosomes” (Communications Biology, 2021).

Protein sequences, listed by entry. Tags and fused reporters are not part of them. Lines headed by an entry give the natural chain unless they say otherwise; changes in a name come on top.
UniProt P55258: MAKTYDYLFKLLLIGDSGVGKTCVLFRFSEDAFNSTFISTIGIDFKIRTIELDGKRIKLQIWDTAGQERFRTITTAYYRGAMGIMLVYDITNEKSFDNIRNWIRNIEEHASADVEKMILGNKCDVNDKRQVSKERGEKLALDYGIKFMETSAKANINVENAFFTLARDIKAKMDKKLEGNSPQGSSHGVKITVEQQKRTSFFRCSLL
UniProt Q3TN34: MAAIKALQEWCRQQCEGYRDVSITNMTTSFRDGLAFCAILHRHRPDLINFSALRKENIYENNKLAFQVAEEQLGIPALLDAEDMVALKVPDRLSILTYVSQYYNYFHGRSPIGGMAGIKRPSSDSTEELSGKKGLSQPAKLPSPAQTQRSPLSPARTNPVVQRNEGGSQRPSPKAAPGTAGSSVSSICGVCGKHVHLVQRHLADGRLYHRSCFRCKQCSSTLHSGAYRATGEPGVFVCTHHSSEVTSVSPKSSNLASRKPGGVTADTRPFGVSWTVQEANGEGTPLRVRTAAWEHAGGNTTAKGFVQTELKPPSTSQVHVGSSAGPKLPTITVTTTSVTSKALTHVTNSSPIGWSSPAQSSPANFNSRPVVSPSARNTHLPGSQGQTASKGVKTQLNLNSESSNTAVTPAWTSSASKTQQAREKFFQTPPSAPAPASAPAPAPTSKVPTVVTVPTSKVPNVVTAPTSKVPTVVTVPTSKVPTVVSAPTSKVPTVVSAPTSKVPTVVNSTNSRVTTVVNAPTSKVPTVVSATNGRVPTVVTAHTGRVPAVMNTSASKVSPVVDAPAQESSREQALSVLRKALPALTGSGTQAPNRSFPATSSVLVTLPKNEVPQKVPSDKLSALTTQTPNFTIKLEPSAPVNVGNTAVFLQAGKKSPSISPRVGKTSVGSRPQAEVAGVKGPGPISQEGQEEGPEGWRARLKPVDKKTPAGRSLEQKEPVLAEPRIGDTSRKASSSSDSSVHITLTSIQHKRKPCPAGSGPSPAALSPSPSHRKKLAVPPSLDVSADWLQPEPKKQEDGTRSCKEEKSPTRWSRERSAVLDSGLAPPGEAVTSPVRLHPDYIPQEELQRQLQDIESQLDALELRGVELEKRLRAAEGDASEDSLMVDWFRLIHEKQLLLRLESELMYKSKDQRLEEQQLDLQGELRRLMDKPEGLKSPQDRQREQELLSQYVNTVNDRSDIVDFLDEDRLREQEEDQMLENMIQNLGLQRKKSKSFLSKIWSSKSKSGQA

In the test the target is HA-Rab8A dominant-active (DA) mutant (Q67L) (mouse) (UniProt P55258). As to the kind of experiment: co-IP; HEK293 lysates; anti-HA antibody (12CA5) on Protein G beads; buffer A, 90 min, 4 °C; western blot. (Immunoblotting shows a protein as a band on a membrane.)

These are yes or no findings as the source states them, for the method shown. In cells and extracts the contact can be indirect. A result given as binding can be weak or reduced; the word gives no strength.

Take GFP-JRABΔLIM (from UniProt Q3TN34): the binding entry is on record as “binds”.
